# Test results as given in PubChem BioAssay AID624156 (Broad Institute, 2012).
# Out of some 46,000 compounds screened, about 900 (2%) were called active. Inconclusive means that the source gave no clear call. Such entries were picked first, then a sample of the others. Rule as the data show it: active = ROS induction above about 79% (passing the limit was not always enough); inconclusive = no clear call, values can overlap the other calls.
# Assay: ROS inducers in U2OS cancer cells, primary screen, cell-based, H2DCF-DA fluorescence (AID 624156);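 also: 0% = DMSO vehicle median and 100% = reference compound median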
# Settings: at 10 µM, stronger effect = higher value
row,Compound,ROS induction (% of piperlongumine)
1,CCOC(=O)N1CCN(C(=O)CSc2ncnc3c2nnn3Cc2ccc(F)cc2)CC1,inconclusive: 84.4%
2,Cc1cc(C(=O)N2CCN(Cc3ccccc3)CC2)n[nH]1,inactive: -14%
3,COC(=O)C(CC#Cc1ccc2c(c1)[C@]1(C(=O)N2)[C@H](C(=O)Nc2nc3ccccc3s2)[C@H]2C(=O)O[C@H](c3ccccc3)[C@H](c3ccccc3)N2[C@@H]1c1ccccc1OCCO)C(=O)OC,inconclusive: 107%
4,C[C@@H]1CCCCO[C@@H](CN(C)C(=O)Nc2ccc(C(F)(F)F)cc2)[C@@H](C)CN([C@H](C)CO)C(=O)c2cc(NS(=O)(=O)c3ccc(F)cc3)ccc2O1,active: 81.9%
5,CCCn1c2ccccc2c2nnc(SCC(=O)Nc3cccc4ccccc34)nc21,active: 91.7%
6,O=c1cc(CSc2ccc(Cl)cc2)nc(N2CCN(Cc3ccc4c(c3)OCO4)CC2)[nH]1,inconclusive: 81.5%
7,C[C@H](CO)N1C[C@H](C)[C@@H](CN(C)Cc2ccc(C(=O)Nc3ccccc3N)cc2)Oc2c(NC(=O)C3CC3)cccc2C1=O,active: 101%
8,CC(=O)Nc1ccc(OC(=O)CSc2nc3ccccc3s2)cc1,inconclusive: 104%
9,FC(F)(F)c1cc(NC(=S)NC2CCCCC2)cc(C(F)(F)F)c1,inconclusive: 121%
10,CCOC(=O)c1cc(CSc2n[nH]c(=O)n2-c2ccccc2)nn1C(C)(C)C,inconclusive: 91.2%
11,Cc1ccc(S(=O)(=O)Nc2ccc3c(c2)C(=O)N([C@@H](C)CO)C[C@H](C)[C@@H](CN(C)Cc2ccc(Cl)c(Cl)c2)O3)cc1,inactive: 12.7%
12,COC(=O)C1=CN(C23CC4CC(CC(C4)C2)C3)C=C(C(=O)OC)C1c1cccc(OC)c1,inconclusive: 80%
13,CN(C)CCCN1C(=O)[C@@]2(Cc3ccccc31)c1ccccc1C(=O)N(Cc1ccccc1)[C@H]2c1ccc(CO)cc1,inactive: -0.936%
14,C[C@@H]1CN([C@H](C)CO)C(=O)c2cc(NC(=O)CCN3CCOCC3)ccc2O[C@@H]1CN(C)C,inactive: -2.62%
15,CC(=O)c1cccc(-n2c(CCC(=O)O)ccc2-c2ccc(Br)cc2)c1,inactive: 5.68%
16,O=C1C=CC(O)(/C=C/C(=O)OC[C@H]2O[C@@H](Oc3ccc(O)cc3)[C@H](O)[C@@H](OC(=O)/C=C/C3(O)C=CC(=O)C=C3)[C@@H]2O)C=C1,active: 127%
17,C[C@@H]1CN([C@H](C)CO)C(=O)c2cc(NS(C)(=O)=O)ccc2O[C@H]1CN(C)Cc1ccc(C(=O)O)cc1,inconclusive: 80.3%
18,C[C@@H]1CCCCO[C@@H](CN(C)C(=O)Cc2ccccc2)[C@@H](C)CN([C@H](C)CO)C(=O)c2cc(NC(=O)NC3CCCCC3)ccc2O1,active: 143%
19,CCOC(=O)c1sc2nc(SCC(=O)C(C)(C)C)n(Cc3ccccc3Cl)c(=O)c2c1C,inactive: -0.897%
20,O=C1N(Cc2ccccc2)Cc2ccccc2[C@@H]2OC(c3ccc(OCCCO)cc3)=N[C@]12CCS(=O)(=O)c1ccccc1,inconclusive: 81.3%
21,CC(C)NC(=O)Nc1ccc2c(c1)C(=O)N([C@@H](C)CO)C[C@H](C)[C@H](CN(C)Cc1ccncc1)O2,inconclusive: 78%
22,C[C@H](CO)N1C[C@H](C)[C@H](CN(C)C(=O)Nc2ccc(F)cc2)Oc2ncc(C#Cc3ccccc3)cc2C1=O,inconclusive: 87.5%

row,Compound,ROS induction (% of piperlongumine)
1,CC(C)c1cc(NC(C)c2ccccc2)n2c(nc3ccccc32)c1C#N (stereo not given),active: 257%
2,Nc1nc(C(=O)N2CCOCC2)nn1S(=O)(=O)c1ccc(Cl)cc1,inconclusive: 113%
3,C[C@@H]1CCCCO[C@H](CN(C)S(=O)(=O)c2ccc(F)cc2)[C@@H](C)CN([C@H](C)CO)C(=O)c2cc(NC(=O)NC3CCCCC3)ccc2O1,active: 166%
4,Cc1ccc(S(=O)(=O)N(C)C[C@@H]2Oc3ccc(NC(=O)CCC(F)(F)F)cc3CC(=O)N([C@@H](C)CO)C[C@@H]2C)cc1,inactive: 12.3%
5,C[C@H]1CN([C@@H](C)CO)C(=O)c2cccc(NS(=O)(=O)c3ccc(F)cc3)c2O[C@H]1CN(C)S(=O)(=O)c1cccs1,inactive: -4.49%
6,O=C(/C=C/Oc1ccc(Cl)cc1)c1ccc(Br)cc1,inconclusive: 81.7%
7,C[C@@H]1CCCCO[C@H](CN(C)Cc2ccc(C(=O)Nc3ccccc3N)cc2)[C@@H](C)CN([C@H](C)CO)C(=O)c2cc(NS(=O)(=O)c3ccc(Cl)cc3)ccc2O1,inconclusive: 87%
8,CC(=O)Nc1cc(C(=O)c2ccc(Cl)cc2)nn(-c2ccccc2)c1=O,inconclusive: 76.3%
9,CC(C)(C)c1ccc(C(=O)N2CCN(c3ccc([N+](=O)[O-])c(NCc4cccnc4)c3)CC2)cc1,active: 106%
10,C[C@H](CO)N1C[C@H](C)[C@H](CN(C)S(=O)(=O)c2ccc(F)cc2)Oc2c(NC(=O)CCCCCC(=O)Nc3ccccc3N)cccc2C1=O,inactive: -5.55%
11,Cc1ccc(S(=O)(=O)N(C)C[C@@H]2Oc3ccc(NC(=O)Cc4cn(C)c5ccccc45)cc3CC(=O)N([C@H](C)CO)C[C@@H]2C)cc1,inconclusive: 86%
12,C[C@H](CO)N1C[C@H](C)[C@@H](CN(C)C(=O)C2CC2)OCc2cn(nn2)CCCC1=O,inconclusive: 79.4%
13,O=C(N/C(=C\c1ccc(-c2ccc(Cl)cc2Cl)o1)C(=O)N1CCCC1)c1ccccc1,inconclusive: 87.5%
14,Cc1noc(C)c1NC(=O)Nc1ccc2c(c1)C(=O)N([C@H](C)CO)C[C@@H](C)[C@H](CN(C)C(=O)Nc1c(C)noc1C)O2,active: 105%
15,Cc1ccc(-n2c(SCC(=O)Nc3cc(C(F)(F)F)ccc3Cl)nnc2-c2ccco2)cc1,inconclusive: 87.3%
16,COc1cccc(C2=NN(C(=O)c3onc(-c4ccccc4Cl)c3C)C(c3ccco3)C2)c1 (stereo not given),inactive: 32.7%
17,O=C(N/N=C/c1cccc(B(O)O)c1)c1ccccn1,inconclusive: 179%
18,Cn1c(=O)c2[nH]cnc2n(C)c1=O,inconclusive: 78.1%
19,C[C@@H]1CN([C@H](C)CO)C(=O)c2cccc(NC(=O)c3ccno3)c2O[C@H]1CN(C)S(=O)(=O)c1cccs1,inconclusive: 191%
20,C[C@@H]1CN([C@H](C)CO)C(=O)Cc2cc(NC(=O)Cc3cn(C)c4ccccc34)ccc2O[C@@H]1CN(C)Cc1ccc(C(=O)Nc2ccccc2N)cc1,active: 85.8%
21,Cc1ccc(S(=O)(=O)NC2CCCCC2)cc1-c1nnc2c3ccccc3c(C)nn12,inconclusive: 80.4%
22,CC(C)(C)c1cc(NC(=O)CSc2n[nH]c(=O)n2-c2ccc3c(c2)OCCO3)cc(C(C)(C)C)c1,inconclusive: 75.3%

# A portion from further up:
row,Compound,ROS induction (% of piperlongumine)
20,C[C@@H]1CN([C@H](C)CO)C(=O)Cc2cc(NC(=O)Cc3cn(C)c4ccccc34)ccc2O[C@@H]1CN(C)Cc1ccc(C(=O)Nc2ccccc2N)cc1,active: 85.8%
21,Cc1ccc(S(=O)(=O)NC2CCCCC2)cc1-c1nnc2c3ccccc3c(C)nn12,inconclusive: 80.4%
22,CC(C)(C)c1cc(NC(=O)CSc2n[nH]c(=O)n2-c2ccc3c(c2)OCCO3)cc(C(C)(C)C)c1,inconclusive: 75.3%

# Later entries.

row,Compound,ROS induction (% of piperlongumine)
1,O=C(CCCN1CCC(O)(c2ccc(Br)cc2)CC1)c1ccc(F)cc1,inconclusive: 85%
2,C[C@@H]1CN([C@H](C)CO)C(=O)Cc2cc(NC(=O)Cc3ccccc3)ccc2O[C@@H]1CN(C)Cc1ccc(Oc2ccccc2)cc1,active: 94.6%
3,C[C@@H]1CN([C@@H](C)CO)C(=O)c2cccc(NS(=O)(=O)c3ccc(F)cc3)c2O[C@H]1CN(C)Cc1ccc(Oc2ccccc2)cc1,inactive: 31.3%
4,CC1(C)CC(=O)c2cc(C#N)c(SCc3ccccc3)nc2C1,inconclusive: 80.8%
5,CCN(CC)c1ccc2cc(C(N)=O)c(=Nc3ccc(F)cc3)oc2c1,inactive: 4.48%
6,COc1ccc(C(CC(=O)O)C(=O)O)cc1OC (stereo not given),inconclusive: 77.2%
7,COc1cccc(S(=O)(=O)N(C)C[C@@H]2Oc3ncc(-c4cccc(C(F)(F)F)c4)cc3C(=O)N([C@H](C)CO)C[C@@H]2C)c1,inconclusive: 94.6%
8,CC(=O)N[C@@H](Cc1ccccc1)C(=O)NN,inactive: 16.6%
9,N#CC1=C(N)C(C#N)(C#N)C2(C(=O)N(Cc3ccccc3)c3ccccc32)C2CCCC=C12 (stereo not given),active: 127%
10,C[C@H](CO)N1C[C@H](C)[C@@H](CN(C)S(=O)(=O)c2cccs2)Oc2c(NS(=O)(=O)c3cn(C)cn3)cccc2C1=O,inconclusive: 79.1%
11,C[C@@H]1CN([C@@H](C)CO)C(=O)c2cccc(NC(=O)Nc3ccc(C(F)(F)F)cc3)c2O[C@H]1CN(C)C,inactive: 4.08%
12,C[C@@H]1CCCCO[C@H](CN(C)CC2CCCCC2)[C@@H](C)CN([C@H](C)CO)C(=O)c2cc(NC(=O)c3ccncc3)ccc2O1,inactive: -0.485%
13,C[C@H]1CN([C@@H](C)CO)C(=O)Cc2cc(NC(=O)Nc3cccc4ccccc34)ccc2O[C@@H]1CN(C)S(=O)(=O)c1ccc(Cl)cc1,inconclusive: 75.6%
14,Cc1ccc(-c2nn3c(C)nnc3c3ccccc23)cc1S(=O)(=O)NCCN1CCOCC1,inconclusive: 79.6%
15,COCCOC(=O)N1C(=O)[C@@]2(c3ccccc31)[C@H](c1ccccc1OCCO)N1[C@H](c3ccccc3)[C@H](c3ccccc3)OC(=O)[C@H]1[C@@H]2C(N)=O,inconclusive: 79.9%
16,COc1ccccc1CN(C)C[C@H]1OCc2cnnn2CCCC(=O)N([C@H](C)CO)C[C@H]1C,active: 113%
17,C=C1C(=O)O[C@H]2[C@H]1[C@@H](OC(=O)C(C)CO)C[C@@]1(C)[C@H](O)CCC(=O)[C@H]21 (stereo not given in full),inconclusive: 77.9%
18,COC(=O)c1ccc(CSc2ccc3nnc(-c4ccc(Cl)cc4)n3n2)o1,inconclusive: 78.3%
19,CCc1ccc(OCC(=O)Nc2ccccc2-c2nc3ccccc3s2)cc1,inconclusive: 82.4%
20,O=C(COc1ccccc1Br)N1CCCCC1,inactive: -4.93%
21,COC(=O)c1ccccc1NC(=O)c1c(C)nn(-c2ccccc2)c1-n1cccc1,active: 126%
